Test results from article PMC9045647.
These are yes or no findings as the source states them, for the method shown. Binding seen in cells or lysates may run through a third protein. For some of these results: Where a sequence is shown, tags or fusion partners need not be part of it.

Columns and labels:
Test in all cases: split reporter
[1] = target: Mtb aconitase (Acn) fused to mDHFR fragment F[1,2] (Mycobacterium tuberculosis) (UniProt O53166)
[2] = target: T1, Mtb SufR (Rv1460) fused to mDHFR fragment F[1,2] (Mycobacterium tuberculosis) (UniProt O53151)
T1 sequence: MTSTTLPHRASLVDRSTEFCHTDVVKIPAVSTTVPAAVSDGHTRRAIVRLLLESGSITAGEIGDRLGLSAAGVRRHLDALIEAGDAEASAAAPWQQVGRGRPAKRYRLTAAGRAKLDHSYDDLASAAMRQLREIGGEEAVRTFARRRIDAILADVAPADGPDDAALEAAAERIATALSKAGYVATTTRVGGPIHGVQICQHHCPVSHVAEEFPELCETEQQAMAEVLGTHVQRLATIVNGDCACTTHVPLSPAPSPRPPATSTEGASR

[3] = target: Mtb SufS (Rv1464) fused to mDHFR fragment F[1,2] (Mycobacterium tuberculosis) (UniProt P9WQ69)
[4] = target: T2, Mtb SufT (Rv1466), wild type, fused to an mDHFR fragment for M-PFC (Mycobacterium tuberculosis) (UniProt O53157)
T2 sequence: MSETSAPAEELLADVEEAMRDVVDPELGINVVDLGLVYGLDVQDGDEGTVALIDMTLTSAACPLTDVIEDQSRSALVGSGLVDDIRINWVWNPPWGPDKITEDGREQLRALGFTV

Measured: binding

Mtb SufT C62A fused to mDHFR fragment F[3] (from UniProt O53157 1-115)
no binding: all assays above
